# Small-molecule microarray binding calls

Targets (5′ to 3′):
PreQ1: PreQ1 riboswitch RNA pseudoknot, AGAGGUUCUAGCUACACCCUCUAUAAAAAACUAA. From B. subtilis. About 24,000 compounds screened, about 170 hits.
SAM-II: SAM-II riboswitch RNA pseudoknot, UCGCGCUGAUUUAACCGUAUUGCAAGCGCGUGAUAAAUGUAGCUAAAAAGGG. About 21,000 compounds screened, about 200 hits.
TPP: TPP riboswitch RNA three-way junction, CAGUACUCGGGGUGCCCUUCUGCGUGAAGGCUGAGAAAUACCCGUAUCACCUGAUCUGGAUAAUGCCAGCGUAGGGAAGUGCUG. About 24,000 compounds screened, about 160 hits.

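Each compound is printed as two spots on a slide made to bind it covalently, so it has no test concentration; the read-out is fluorescence of the bound, labelled oligonucleotide. The data file lists only calls. An earlier report of the laboratory on the PreQ1, TPP and SAM-II riboswitches (doi:10.1038/s41467-019-09493-3) used 1 µM RNA for 2 h and required a mean Z-score above 3 (spot signal-to-noise against the whole library), a score well above that on a control array, and duplicate spots agreeing (coefficient of variation under 100); it then also set aside compounds that hit other targets, which this list keeps. The cut-offs behind this list may differ. The calls come from the array alone, and fixing a compound to the slide can hide its binding.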 A compound is marked yes if it was called a hit and no if it was screened but was not. This is an unselected part of the compounds tested. A dash means that no call is listed here.

| # | Compound | PreQ1 | SAM-II | TPP |
|---|---|---|---|---|
| 1 | `COc1ccccc1-c1cc2nc(C)cc(NCC3CCCO3)n2n1` (centres undefined) | no | - | no |
| 2 | `Nc1cc(C(=O)[O-])ncn1` | no | no | no |
| 3 | `Cc1ccc(NC(=O)C2(N(Cc3ccccc3)C(=O)Cn3nnnc3N)CCCCC2)cc1` | no | no | no |
| 4 | `CC(C)Cn1cncc1CN1CCCC(Nc2ccc(F)c(F)c2)C1` (centres undefined) | no | no | no |
| 5 | `O=[N+]([O-])c1ccc(-c2ccccc2)c([As](=O)(O)O)c1` | no | no | no |
| 6 | `COc1ccc(-n2ncc(C(C)NC(=O)c3ccc(CO)o3)c2C)cc1` (centres undefined) | no | no | no |
| 7 | `O=C(O)c1cc(NC2=NS(=O)(=O)c3ccccc32)ccc1O` | no | - | no |
| 8 | `COCCNc1cc(C)nc2c(C)c(-c3ccc(OC)c(OC)c3)nn12` | no | - | no |
| 9 | `CC(C)(C)c1cc(C=C(C#N)C#N)cc(Br)c1O` | no | no | no |
| 10 | `O=C(CCCO)NCCc1nc2ccccc2n1Cc1ccc(Br)cc1` | no | - | no |
| 11 | `c1ccc(Sc2ncnc3ccccc23)cc1` | no | no | no |
| 12 | `CCOCc1nc2c(c(NCc3cc(COC)[nH]n3)n1)CCNCC2` | no | no | no |
| 13 | `CCOc1cccc(NC(=O)c2sc3nc(-c4ccc(F)cc4)ccc3c2N)c1` | no | no | no |
| 14 | `OCC1CCCC(n2cnc3c(=S)nc[nH]c32)O1` (centres undefined) | no | no | no |
| 15 | `COc1ccc(-c2c(NCc3ccc(Cl)cc3)c(=O)c2=O)cc1` | no | - | no |
| 16 | `CCN(CC)CCNC(=O)c1ccc(NCN2C(=O)NC(c3ccccc3)(c3ccccc3)C2=O)cc1` | no | no | no |
| 17 | `OCc1ccc(-c2nccn2CCCCc2ccccn2)o1` | no | no | no |
| 18 | `CCC(Nc1cccc(OC)c1)C(=O)NCCc1ccc(O)cc1` (centres undefined) | no | no | no |
| 19 | `N#CC1=C(N)N(c2ccc(F)cc2)C2=C(C(=O)OC2)C12C(=O)Nc1ccccc12` (centres undefined) | no | no | no |
| 20 | `COc1ccc2c(c1)nc(SCC(C)O)n2C` (centres undefined) | no | no | no |
| 21 | `Cc1ccc(N2CC(C(=O)NCC(C)O)CC2=O)cc1` (centres undefined) | no | no | no |
| 22 | `O=C(NCCc1c[nH]c2ccccc12)c1nn(-c2ccccc2F)nc1CO` | no | - | no |
| 23 | `Cc1ccc(NCCCNC(=O)C2NCCc3[nH]cnc32)nc1` (centres undefined) | no | no | no |
| 24 | `Cc1[nH]c2cc(C(=O)O)cc(C(=O)O)c2c1CCN` | no | no | no |
| 25 | `Cc1nc2ccccn2c1-c1csc(Nc2ccc(S(N)(=O)=O)cc2)n1` | no | no | no |
| 26 | `C[C@@]1(O)CCN(CCC(=O)NCc2ccco2)C[C@@H]1O` | no | no | no |
| 27 | `COc1ccc(CCNCCC(=O)Nc2c(C)cc(C)cc2C)cc1OC.Cl` | no | no | no |
| 28 | `CCOC(=O)C1CCN(c2c(NC3CCCCCCC3)c(=O)c2=O)CC1` | no | no | no |
| 29 | `COc1ccc(CNCc2cccc(Br)c2)cc1` | no | no | no |
| 30 | `COc1ccc(-c2ccc(C(O)CN3CCOCC3)cc2)cc1Cl` (centres undefined) | no | no | no |
| 31 | `CC1=CC(C)(C)Nc2ccc(Cc3ccc4c(c3)C(C)=CC(C)(C)N4)cc21` | no | no | no |
| 32 | `O=C(NC(Nc1ccccc1)C(Cl)(Cl)Cl)NC(Nc1ccccc1)C(Cl)(Cl)Cl` (centres undefined) | no | no | no |
| 33 | `COC(=O)c1cccc(Nc2c(-c3ccc(O)c(OC)c3)nc3cnccn23)c1` | no | - | no |
| 34 | `CC1(C)Cc2c(C#N)c(Nc3ccc(Cl)cc3)n3cnnc3c2CO1` | no | no | no |
| 35 | `Cc1c(C(=O)N2CCN(C)C3(CCNCC3)C2)n(C)c2c(C)cccc12` | no | no | no |
| 36 | `CC1CCCN(CCCNc2c(-c3ccc(C(C)C)cc3)c(=O)c2=O)C1` (centres undefined) | no | - | no |
| 37 | `O=C(O)C1CNCCN(C(=O)CCCn2ccnc2)C1` (centres undefined) | no | no | no |
| 38 | `COc1ccc(CCNc2nc(-c3ccccc3)cs2)cc1OC` | no | no | no |

The last 2 entries again:

Compound	PreQ1	SAM-II	TPP
O=C(O)C1CNCCN(C(=O)CCCn2ccnc2)C1 (centres undefined)	no	no	no
COc1ccc(CCNc2nc(-c3ccccc3)cs2)cc1OC	no	no	no

From ROBIN, a set of small-molecule microarray screens (doi:10.1002/anie.202211358).